Test results from paper PMC9753400, “Conformational alteration in glycan induces phospholipase Cβ1 activation and angiogenesis” (Journal of Biomedical Science, 2022).
Results are given in words; binding and its absence hold for the method and conditions named. For some of these results: Binding seen in cells or lysates may run through a third protein. Some binding calls cover weakened binding; strength is not graded here. Each block holds one binder with its values, some of them ahead of it.

Key:
[1] = biological target: T1, endogenous TRAX in HUVECs (human (endogenous in HUVECs)) (UniProt Q99598); assay: condition: only HUVECs incubated with 20 μM GHCer for 3 h; FRET or BRET; as a4, but HUVECs incubated with 20 μM GHCer for 3 h before fixation
T1 sequence: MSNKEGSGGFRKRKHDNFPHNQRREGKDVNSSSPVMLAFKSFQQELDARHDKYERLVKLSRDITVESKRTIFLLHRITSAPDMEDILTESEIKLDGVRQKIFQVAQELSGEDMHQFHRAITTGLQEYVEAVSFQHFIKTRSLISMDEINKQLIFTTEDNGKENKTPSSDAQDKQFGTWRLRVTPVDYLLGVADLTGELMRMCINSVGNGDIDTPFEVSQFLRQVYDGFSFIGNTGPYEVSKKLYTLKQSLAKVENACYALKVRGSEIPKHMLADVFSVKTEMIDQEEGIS

[2] = biological target: T1, endogenous TRAX in HUVECs (human (endogenous in HUVECs)); assay: FRET or BRET; confocal FRET in fixed, permeabilised HUVECs; PLCβ1 stained with mouse antibody and Alexa488 anti-mouse IgG (donor), TRAX with rabbit antibody and Alexa555 anti-rabbit IgG (acceptor); cells treated with PBS, 20 μM SSEA3Cer for 3 h, or EVs (100 μg), EVs + mAb VK9, EVs + isotype antibody for 16 h
[3] = biological target: T2, recombinant C-terminal domain of PLCβ1 (PLCβ1-C), amino acids 890 to 1161 (human) (UniProt Q9NQ66); assay: ELISA; PLCβ1-C immobilised on microtiter plate, TRAX added at rising concentrations, detected by anti-TRAX antibody and AP-conjugated secondary antibody; with or without 20 μM GHCer; both purified
T2 sequence: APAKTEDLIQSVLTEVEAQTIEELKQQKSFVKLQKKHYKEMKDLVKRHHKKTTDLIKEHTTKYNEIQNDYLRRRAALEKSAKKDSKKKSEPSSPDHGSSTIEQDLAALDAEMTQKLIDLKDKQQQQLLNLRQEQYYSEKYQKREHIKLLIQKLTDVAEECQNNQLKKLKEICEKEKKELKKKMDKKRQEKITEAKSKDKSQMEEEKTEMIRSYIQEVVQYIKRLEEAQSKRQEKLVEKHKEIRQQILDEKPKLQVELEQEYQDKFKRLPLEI

[4] = biological target: T3, recombinant human full-length translin-associated factor X (TRAX) (human) (UniProt Q99598); assay: ELISA; TRAX immobilised on microtiter plate, PLCβ1-C added at rising concentrations, detected by anti-PLCβ1 antibody and AP-conjugated secondary antibody; with or without 20 μM GHCer; both purified
T3 sequence: T1 sequence

- binding [1]: no binding
- binding [2]: binds
B1: endogenous phospholipase C β1 (PLCβ1) in HUVECs (protein, UniProt Q9NQ66 1-1216)
chain: MAGAQPGVHALQLKPVCVSDSLKKGTKFVKWDDDSTIVTPIILRTDPQGFFFYWTDQNKETELLDLSLVKDARCGRHAKAPKDPKLRELLDVGNIGRLEQRMITVVYGPDLVNISHLNLVAFQEEVAKEWTNEVFSLATNLLAQNMSRDAFLEKAYTKLKLQVTPEGRIPLKNIYRLFSADRKRVETALEACSLPSSRNDSIPQEDFTPEVYRVFLNNLCPRPEIDNIFSEFGAKSKPYLTVDQMMDFINLKQRDPRLNEILYPPLKQEQVQVLIEKYEPNNSLARKGQISVDGFMRYLSGEENGVVSPEKLDLNEDMSQPLSHYFINSSHNTYLTAGQLAGNSSVEMYRQVLLSGCRCVELDCWKGRTAEEEPVITHGFTMTTEISFKEVIEAIAECAFKTSPFPILLSFENHVDSPKQQAKMAEYCRLIFGDALLMEPLEKYPLESGVPLPSPMDLMYKILVKNKKKSHKSSEGSGKKKLSEQASNTYSDSSSMFEPSSPGAGEADTESDDDDDDDDCKKSSMDEGTAGSEAMATEEMSNLVNYIQPVKFESFEISKKRNKSFEMSSFVETKGLEQLTKSPVEFVEYNKMQLSRIYPKGTRVDSSNYMPQLFWNAGCQMVALNFQTMDLAMQINMGMYEYNGKSGYRLKPEFMRRPDKHFDPFTEGIVDGIVANTLSVKIISGQFLSDKKVGTYVEVDMFGLPVDTRRKAFKTKTSQGNAVNPVWEEEPIVFKKVVLPTLACLRIAVYEEGGKFIGHRILPVQAIRPGYHYICLRNERNQPLTLPAVFVYIEVKDYVPDTYADVIEALSNPIRYVNLMEQRAKQLAALTLEDEEEVKKEADPGETPSEAPSEARTTPAENGVNHTTTLTPKPPSQALHSQPAPGSVKAPAKTEDLIQSVLTEVEAQTIEELKQQKSFVKLQKKHYKEMKDLVKRHHKKTTDLIKEHTTKYNEIQNDYLRRRAALEKSAKKDSKKKSEPSSPDHGSSTIEQDLAALDAEMTQKLIDLKDKQQQQLLNLRQEQYYSEKYQKREHIKLLIQKLTDVAEECQNNQLKKLKEICEKEKKELKKKMDKKRQEKITEAKSKDKSQMEEEKTEMIRSYIQEVVQYIKRLEEAQSKRQEKLVEKHKEIRQQILDEKPKLQVELEQEYQDKFKRLPLEILEFVQEAMKGKISEDSNHGSAPLSLSSDPGKVNHKTPSSEELGGDIPGKEFDTPL

- binding [3]: binds
B2: recombinant human full-length translin-associated factor X (TRAX) (protein, UniProt Q99598 1-290)
chain: T1 sequence

- binding [4]: binds
B3: recombinant C-terminal domain of PLCβ1 (PLCβ1-C), amino acids 890 to 1161 (domain or fragment, human, UniProt Q9NQ66 890-1161, looked up)
chain: T2 sequence
notes: phospholipase C β1 (PLCβ1), human, C-terminal domain, residues 890-1161, cDNA from HUVECs, in pET-21d; Removal of the tag is not mentioned; also called recombinant C-terminus of PLCβ1; source: E. coli BL21 (DE3) pLys, purified (HisTrap FF, DEAE-Sepharose, SP-Sepharose)
